Test results reported in patent publication US11993574B2, “Pyrazole and imidazole compounds for inhibition of IL-17 and RORgamma” (REATA PHARMACEUTICALS, INC., priority 2018, dated 2024).
The match of structure and compound is tentative.

Protein sequences, listed by entry. Tags and fused reporters are not part of them. Residues count along the entry.
UniProt P51449, 269-508 limits assumed: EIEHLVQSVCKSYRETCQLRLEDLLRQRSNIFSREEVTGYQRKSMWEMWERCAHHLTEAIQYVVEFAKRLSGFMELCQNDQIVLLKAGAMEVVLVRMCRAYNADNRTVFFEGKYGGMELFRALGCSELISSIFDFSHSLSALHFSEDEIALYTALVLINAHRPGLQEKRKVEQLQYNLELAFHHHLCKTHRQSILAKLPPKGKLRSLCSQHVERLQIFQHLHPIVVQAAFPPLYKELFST

Key:
[1] = molecular target: Human RAR-related Orphan Receptor Gamma (RORγ) (Homo sapiens, UniProt P51449); assay: RORγ assay (GAL4-RORγ hybrid luciferase reporter, Indigo Biosciences); conditions: read-out: RORγ IC50; inverse-agonist activity, GAL4-RORγ reporter cells, 23 hours
From the text: B. RORγ Assay and Cell Viability
The RORγ assay system was purchased from Indigo Biosciences. This nuclear receptor assay utilizes a human cell line that has been engineered to express a hybrid form of the Human RAR-related Orphan Receptor Gamma (RORγ) at high levels. The N-terminal DNA binding domain (DBD) of the native RORγ receptor was substituted with the yeast GAL4-DBD to generate the GAL4-RORγ hybrid nuclear receptor. The reporter cell line is transfected with a plasmid that encodes the beetle luciferase gene under the control of the GAL4 upstream activating sequence (UAS). GAL4 binds to the UAS and increases transcription of downstream target genes. The GAL4-RORγ hybrid is constitutively active; therefore, the principle application of this reporter assay system is to screen test compounds to quantify inverse-agonist activities against human RORγ. Because the ligand binding domain (LBD) of RORγ is identical to the LBD of RORγt, this assay is an accurate surrogate for evaluating activity of experimental ligands against RORγt. […] After this incubation, luciferin was added to the wells and luciferase activity was determined by measuring the luminescence signal using a BMG Pherastar microplate reader. Viability was determined using the Live Cell Multiplex Assay (Indigo Biosciences). […] Data were analyzed using GraphPad Prism version 6.00 for Windows (GraphPad Software, La Jolla Calif. USA). […]

[2] = system: IL-17A; assay: IL-17 release from differentiated primary human T-cells (IL-17A HTRF assay); conditions: read-out: hIL17 IC50; primary human CD4+ T cells differentiated into Th17 cells, 45-hour incubation, IL-17A in supernatant
Procedure: C. IL-17 Release from Differentiated Primary Human T-Cells and Cell Viability
Primary human cryopreserved CD4+ T Cells (Lonza) were thawed according to the manufacturer's recommendations and plated either in Lymphocyte Growth Medium-3 (LGM-3) or X-VIVO 20 media (Lonza) in 96-well tissue culture plates at a density of ˜2×10^5 cells per well, and allowed to recover for approximately 4 hours at 37° C. with 5% CO2 in a humidified atmosphere. After the recovery step, DMSO (vehicle) or test compound at doses ranging from 2 to 500 nM or 4 to 1000 nM in a three-fold dilution series was added to the cells. Three replicate wells were tested for each treatment condition. […] Cell viability was assessed in the original plate using the CyQuant Direct Assay (Life Technologies). […] Fluorescence was read on a SpectraMax M2e spectrophotometer at 480 nm (excitation) and 535 nm (emission) wavelengths. […] The concentration of IL-17A in the supernatant was measured using the Homogeneous Time-Resolved Fluorescence (HTRF) assay (Cisbio Bioassays) according to the manufacturer's protocol. […] Data were analyzed using GraphPad Prism (GraphPad Software, La Jolla California USA). […] The IC50 values for compound-mediated reduction in IL-17A levels and cell viability were determined by non-linear regression analysis using the log(inhibitor) vs. normalized response with variable slope equation. […]

[3] = system: Nrf2 transcription factor; assay: AREc32 luciferase reporter assay; conditions: AREc32 cells, 19 hours; concentration required to increase GST ARE luciferase reporter activity by 2-fold
From the text: A. AREc32 Luciferase Reporter Assay
The AREc32 luciferase reporter assay allows for quantitative assessment of the endogenous activity of the Nrt2 transcription factor in cultured mammalian cells. AREc32 cells are derived from MCF-7 human breast carcinoma cells that were stably transfected with a reporter construct that contains the firefly luciferase gene located downstream of eight copies of the rat GSTA2 antioxidant response element (ARE) sequence (Wang et al., 2006; Concept Life Sciences Integrated Discovery and Development Services Ltd (CLSIDDS)). Active Nrf2 binds to the ARE sequences and increases expression of the firefly luciferase gene. To assess the Nrf2-activating potential of the test compounds, AREc32 cells were plated in black […] plates at a density of 20,000 cells per well in triplicate in DMEM+10% FBS+0.8 mg/mL Geneticin and incubated at 37° C. with 5% CO2 in a humidified atmosphere. […] Luciferase activity was determined using the ONE-Glo Luciferase assay (Promega). The luminescence signal was measured on a BMG Pherastar microplate reader. The mean luminescence value from test compound-treated wells was normalized to that from DMSO-treated wells and was represented as fold-induction. Data were analyzed using GraphPad Prism version 6.00 for Windows, GraphPad Software, La Jolla Calif. […]

| Compound | IC50 [1] [nM] | IC50 [2] [nM] | NRF2 ARE 2-Fold (EC2×) [3] [µM] |
| --- | --- | --- | --- |
| Cc1cc(-c2ccc(-n3nc(-c4ccccc4F)c4c3[C@]3(C)CC(C#N)=C(O)[C@H](C)[C@H]3CC4)cc2)cnn1 | 297 | 468 | – |
| C[C@H]1C(O)=C(C#N)C[C@@]2(C)c3c(c(-c4ccncn4)nn3-c3ccc(-c4cncc(F)c4)cc3)CC[C@H]12 | 625 | > 500 | >2.000 |
